Source: the supplement of paper PMC10849652
Some of the results follow.

Amino acid sequences for entries named in this document (tags omitted). A change or cut given only in a name is not applied to a line headed by its entry.
UniProt Q9BPX3, whole entry, looked up: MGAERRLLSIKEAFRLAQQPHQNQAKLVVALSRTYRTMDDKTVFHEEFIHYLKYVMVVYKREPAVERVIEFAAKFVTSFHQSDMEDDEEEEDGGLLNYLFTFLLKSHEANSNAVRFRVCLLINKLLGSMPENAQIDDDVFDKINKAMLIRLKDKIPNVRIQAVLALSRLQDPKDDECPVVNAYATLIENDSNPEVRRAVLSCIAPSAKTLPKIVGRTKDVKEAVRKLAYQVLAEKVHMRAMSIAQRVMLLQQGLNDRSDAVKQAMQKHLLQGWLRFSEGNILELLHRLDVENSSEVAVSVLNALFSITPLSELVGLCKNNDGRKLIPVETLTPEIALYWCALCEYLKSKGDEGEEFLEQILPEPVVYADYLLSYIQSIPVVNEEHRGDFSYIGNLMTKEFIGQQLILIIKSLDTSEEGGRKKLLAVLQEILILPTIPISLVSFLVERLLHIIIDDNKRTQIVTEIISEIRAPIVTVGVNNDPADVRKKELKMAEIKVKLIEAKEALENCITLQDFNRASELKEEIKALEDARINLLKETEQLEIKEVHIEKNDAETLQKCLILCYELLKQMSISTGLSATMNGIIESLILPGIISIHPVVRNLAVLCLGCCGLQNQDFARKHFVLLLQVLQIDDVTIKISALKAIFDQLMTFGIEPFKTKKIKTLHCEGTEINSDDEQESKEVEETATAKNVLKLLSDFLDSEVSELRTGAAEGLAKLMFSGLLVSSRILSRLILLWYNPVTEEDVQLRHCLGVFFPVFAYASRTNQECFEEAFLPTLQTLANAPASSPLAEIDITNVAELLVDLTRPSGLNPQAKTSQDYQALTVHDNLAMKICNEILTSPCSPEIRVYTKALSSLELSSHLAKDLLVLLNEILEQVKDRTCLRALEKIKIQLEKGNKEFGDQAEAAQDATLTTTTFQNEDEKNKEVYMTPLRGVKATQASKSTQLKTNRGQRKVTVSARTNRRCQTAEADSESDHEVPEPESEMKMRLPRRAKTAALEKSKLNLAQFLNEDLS
UniProt Q13506: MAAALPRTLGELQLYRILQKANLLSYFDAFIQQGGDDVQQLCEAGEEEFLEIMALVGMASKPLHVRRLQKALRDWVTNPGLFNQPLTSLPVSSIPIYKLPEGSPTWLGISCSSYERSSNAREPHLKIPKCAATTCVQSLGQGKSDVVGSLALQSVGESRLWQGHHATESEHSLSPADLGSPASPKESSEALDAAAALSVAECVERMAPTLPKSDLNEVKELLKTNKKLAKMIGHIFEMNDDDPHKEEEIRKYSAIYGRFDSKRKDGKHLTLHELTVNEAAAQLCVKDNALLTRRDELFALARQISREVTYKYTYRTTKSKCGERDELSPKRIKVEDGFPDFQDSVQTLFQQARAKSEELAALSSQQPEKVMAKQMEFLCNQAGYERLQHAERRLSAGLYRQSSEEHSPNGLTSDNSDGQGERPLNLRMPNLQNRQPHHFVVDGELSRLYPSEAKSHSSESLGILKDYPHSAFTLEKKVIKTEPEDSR
UniProt Q96AH0: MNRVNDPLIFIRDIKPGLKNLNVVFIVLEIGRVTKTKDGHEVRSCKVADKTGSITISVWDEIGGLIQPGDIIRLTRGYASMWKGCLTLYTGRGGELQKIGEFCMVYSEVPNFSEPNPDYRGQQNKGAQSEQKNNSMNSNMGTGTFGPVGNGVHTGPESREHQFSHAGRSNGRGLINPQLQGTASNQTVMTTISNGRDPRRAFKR
UniProt Q93015: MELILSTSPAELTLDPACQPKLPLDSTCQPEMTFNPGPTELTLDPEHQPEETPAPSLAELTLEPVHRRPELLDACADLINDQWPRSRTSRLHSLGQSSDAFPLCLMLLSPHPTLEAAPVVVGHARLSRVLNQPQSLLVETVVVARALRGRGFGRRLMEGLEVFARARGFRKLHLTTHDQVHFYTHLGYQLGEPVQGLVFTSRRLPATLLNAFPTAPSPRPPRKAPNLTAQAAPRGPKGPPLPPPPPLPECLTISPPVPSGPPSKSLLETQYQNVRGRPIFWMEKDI
UniProt Q9UKX2, whole entry, looked up: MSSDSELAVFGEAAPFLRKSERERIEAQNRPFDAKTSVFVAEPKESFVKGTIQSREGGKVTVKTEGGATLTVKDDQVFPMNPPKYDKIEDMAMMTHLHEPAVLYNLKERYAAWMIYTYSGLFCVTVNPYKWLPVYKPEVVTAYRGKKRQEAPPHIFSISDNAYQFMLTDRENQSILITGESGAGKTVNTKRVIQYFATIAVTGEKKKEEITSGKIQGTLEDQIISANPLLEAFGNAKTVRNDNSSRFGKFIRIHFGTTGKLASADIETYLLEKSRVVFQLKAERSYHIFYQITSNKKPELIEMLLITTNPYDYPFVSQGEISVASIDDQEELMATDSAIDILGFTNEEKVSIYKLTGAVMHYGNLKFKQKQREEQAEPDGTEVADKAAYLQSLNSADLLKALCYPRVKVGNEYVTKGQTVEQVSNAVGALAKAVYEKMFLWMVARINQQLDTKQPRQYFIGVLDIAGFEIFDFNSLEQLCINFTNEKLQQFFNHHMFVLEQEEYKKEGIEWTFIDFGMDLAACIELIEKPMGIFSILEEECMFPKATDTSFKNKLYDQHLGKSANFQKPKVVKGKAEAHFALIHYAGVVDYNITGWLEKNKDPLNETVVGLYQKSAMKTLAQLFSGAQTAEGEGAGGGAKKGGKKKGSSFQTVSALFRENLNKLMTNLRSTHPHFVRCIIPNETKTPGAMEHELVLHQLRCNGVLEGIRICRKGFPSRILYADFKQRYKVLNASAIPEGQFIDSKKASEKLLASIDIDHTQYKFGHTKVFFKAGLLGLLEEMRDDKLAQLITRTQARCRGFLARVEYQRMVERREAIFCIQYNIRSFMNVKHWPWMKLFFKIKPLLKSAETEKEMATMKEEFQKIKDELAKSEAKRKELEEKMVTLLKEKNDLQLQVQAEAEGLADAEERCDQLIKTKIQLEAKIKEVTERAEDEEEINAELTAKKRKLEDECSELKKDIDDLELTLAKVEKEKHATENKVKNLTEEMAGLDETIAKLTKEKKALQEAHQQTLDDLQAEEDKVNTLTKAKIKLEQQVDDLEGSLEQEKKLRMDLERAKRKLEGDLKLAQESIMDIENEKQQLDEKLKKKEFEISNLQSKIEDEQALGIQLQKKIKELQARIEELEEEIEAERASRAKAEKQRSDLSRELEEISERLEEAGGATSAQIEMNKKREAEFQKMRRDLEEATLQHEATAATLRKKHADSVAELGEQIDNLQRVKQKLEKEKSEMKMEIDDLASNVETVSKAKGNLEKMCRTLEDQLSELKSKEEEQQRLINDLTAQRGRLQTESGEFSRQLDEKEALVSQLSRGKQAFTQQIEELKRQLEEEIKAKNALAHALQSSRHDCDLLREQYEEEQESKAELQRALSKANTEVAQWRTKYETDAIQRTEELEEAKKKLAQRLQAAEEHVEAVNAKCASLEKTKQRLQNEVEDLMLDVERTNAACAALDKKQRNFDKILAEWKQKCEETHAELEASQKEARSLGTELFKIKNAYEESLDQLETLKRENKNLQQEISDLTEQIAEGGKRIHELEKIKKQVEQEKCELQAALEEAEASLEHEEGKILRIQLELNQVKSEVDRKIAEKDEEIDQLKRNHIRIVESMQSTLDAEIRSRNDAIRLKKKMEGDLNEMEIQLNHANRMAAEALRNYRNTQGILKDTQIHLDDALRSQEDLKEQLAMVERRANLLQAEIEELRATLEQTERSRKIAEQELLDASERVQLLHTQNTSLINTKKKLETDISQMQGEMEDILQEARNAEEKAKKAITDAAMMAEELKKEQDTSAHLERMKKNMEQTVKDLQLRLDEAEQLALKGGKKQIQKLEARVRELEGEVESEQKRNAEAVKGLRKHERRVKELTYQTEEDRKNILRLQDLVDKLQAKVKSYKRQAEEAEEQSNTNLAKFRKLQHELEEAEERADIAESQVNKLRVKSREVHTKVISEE
UniProt Q9HD67, whole entry, looked up: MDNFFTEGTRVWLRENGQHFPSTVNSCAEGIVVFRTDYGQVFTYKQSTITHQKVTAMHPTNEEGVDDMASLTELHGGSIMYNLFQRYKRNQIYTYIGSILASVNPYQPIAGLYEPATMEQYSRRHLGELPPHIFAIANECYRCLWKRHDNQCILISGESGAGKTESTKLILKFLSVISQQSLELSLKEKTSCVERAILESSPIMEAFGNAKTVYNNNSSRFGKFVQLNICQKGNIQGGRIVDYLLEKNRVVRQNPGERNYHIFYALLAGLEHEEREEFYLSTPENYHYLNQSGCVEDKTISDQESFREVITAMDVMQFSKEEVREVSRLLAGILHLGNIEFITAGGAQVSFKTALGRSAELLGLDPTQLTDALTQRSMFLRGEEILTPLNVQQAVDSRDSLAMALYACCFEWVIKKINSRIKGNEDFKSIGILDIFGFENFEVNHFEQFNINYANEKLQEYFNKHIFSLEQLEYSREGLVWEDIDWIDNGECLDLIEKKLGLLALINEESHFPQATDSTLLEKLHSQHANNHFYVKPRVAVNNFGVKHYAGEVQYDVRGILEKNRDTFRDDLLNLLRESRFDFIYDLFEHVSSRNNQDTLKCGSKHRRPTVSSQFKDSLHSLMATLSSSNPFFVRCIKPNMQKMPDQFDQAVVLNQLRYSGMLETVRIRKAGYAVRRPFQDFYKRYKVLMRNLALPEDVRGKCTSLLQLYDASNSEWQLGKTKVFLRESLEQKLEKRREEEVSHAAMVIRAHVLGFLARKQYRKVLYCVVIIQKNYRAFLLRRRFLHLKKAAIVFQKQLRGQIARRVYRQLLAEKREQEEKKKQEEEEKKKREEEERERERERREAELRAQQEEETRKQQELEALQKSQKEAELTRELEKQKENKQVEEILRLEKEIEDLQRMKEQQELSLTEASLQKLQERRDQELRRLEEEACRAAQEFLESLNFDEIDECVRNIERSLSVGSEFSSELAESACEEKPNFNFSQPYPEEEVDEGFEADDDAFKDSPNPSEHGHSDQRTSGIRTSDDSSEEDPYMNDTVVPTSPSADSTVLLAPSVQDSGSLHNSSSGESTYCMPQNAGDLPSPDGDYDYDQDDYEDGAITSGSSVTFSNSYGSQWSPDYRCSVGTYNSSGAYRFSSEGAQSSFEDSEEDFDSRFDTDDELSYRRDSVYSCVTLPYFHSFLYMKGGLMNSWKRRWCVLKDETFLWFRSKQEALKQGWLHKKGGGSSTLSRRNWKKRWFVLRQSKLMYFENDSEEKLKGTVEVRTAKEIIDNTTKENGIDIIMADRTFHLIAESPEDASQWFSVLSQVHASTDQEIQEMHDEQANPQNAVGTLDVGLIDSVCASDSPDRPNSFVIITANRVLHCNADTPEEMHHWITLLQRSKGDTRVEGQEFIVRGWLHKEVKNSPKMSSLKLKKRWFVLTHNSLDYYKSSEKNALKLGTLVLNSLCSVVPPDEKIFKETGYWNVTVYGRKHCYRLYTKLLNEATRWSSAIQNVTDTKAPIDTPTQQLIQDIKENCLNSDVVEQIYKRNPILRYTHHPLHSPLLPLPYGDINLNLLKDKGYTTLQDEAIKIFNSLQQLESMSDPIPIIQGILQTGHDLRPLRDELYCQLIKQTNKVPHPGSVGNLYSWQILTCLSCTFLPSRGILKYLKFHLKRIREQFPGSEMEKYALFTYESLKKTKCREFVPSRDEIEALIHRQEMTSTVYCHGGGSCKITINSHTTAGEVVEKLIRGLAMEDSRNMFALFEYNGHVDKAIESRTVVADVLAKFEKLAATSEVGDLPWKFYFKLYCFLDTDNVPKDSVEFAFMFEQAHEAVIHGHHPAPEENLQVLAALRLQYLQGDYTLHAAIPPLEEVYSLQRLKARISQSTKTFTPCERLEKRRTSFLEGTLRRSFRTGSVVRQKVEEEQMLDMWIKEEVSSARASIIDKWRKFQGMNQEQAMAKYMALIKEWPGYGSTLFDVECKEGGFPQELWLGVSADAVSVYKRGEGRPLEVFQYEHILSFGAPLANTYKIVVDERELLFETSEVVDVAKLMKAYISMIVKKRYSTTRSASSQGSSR
UniProt O15049: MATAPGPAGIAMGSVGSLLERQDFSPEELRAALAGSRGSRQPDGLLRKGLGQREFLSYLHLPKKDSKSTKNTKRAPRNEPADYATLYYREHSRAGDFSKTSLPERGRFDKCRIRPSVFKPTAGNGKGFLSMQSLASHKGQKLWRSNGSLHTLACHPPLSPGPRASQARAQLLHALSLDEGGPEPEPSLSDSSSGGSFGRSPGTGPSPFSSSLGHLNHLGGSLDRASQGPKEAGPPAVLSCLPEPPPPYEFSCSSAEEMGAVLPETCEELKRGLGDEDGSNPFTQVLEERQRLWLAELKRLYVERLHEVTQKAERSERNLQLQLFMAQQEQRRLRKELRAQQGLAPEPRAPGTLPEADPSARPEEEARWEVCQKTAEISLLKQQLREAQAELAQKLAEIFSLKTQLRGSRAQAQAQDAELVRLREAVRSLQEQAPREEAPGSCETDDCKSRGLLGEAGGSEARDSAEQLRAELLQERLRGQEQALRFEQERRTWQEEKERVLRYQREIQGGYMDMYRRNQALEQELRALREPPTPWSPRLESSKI

Tests used:
Test in all cases: log2 fold change, soluble protein after heating vs DMSO (PISA); higher = thermal stabilisation; K562 lysate, 10 uM; active = over 0.2 and 3.5 SD of the protein, either way, in both replicates (recomputed)
[1] = compound: Cc1cn(-c2cc(NC(=O)c3ccc(C)c(Nc4nccc(-c5cccnc5)n4)c3)cc(C(F)(F)F)c2)cn1 [nilotinib]
Outline: (§1)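 K562 pellets were dounce-homogenised in PBS pH 7.4 containing 1 mM MgCl2, and the crude extract, at 1 mg/mL protein, was exposed to 10 μM compound for 30 min. Aliquots were heated for 3 min across 48°C-58°C, pooled, brought to 0.5% NP-40 at 4°C and spun at 21,000xg for 90 min, with the supernatant taken as soluble protein. TMTpro 16plex LC-MS/MS with equalised channel sums quantified that protein. Values are log-two fold changes in thermal stability relative to solvent controls, taken from duplicates.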

[2] = compound: Cc1nc(Nc2n[nH]c3c2CN(C(=O)N[C@H](CN(C)C)c2ccccc2)C3(C)C)c2sccc2n1
Outline: as §1

[3] = compound: Cc1nc(Nc2ncc(C(=O)Nc3c(C)cccc3Cl)s2)cc(N2CCN(CCO)CC2)n1 [dasatinib]
Outline: as §1

[4] = compound: Cc1ncc(-c2ccnc(Nc3ccc(S(C)(=O)=O)cc3)n2)n1C(C)C
Outline: as §1

[5] = compound: Cn1cc(-c2ccc3c(c2)CCN3C(=O)Cc2cccc(C(F)(F)F)c2)c2c(N)ncnc21
Outline: as §1

[6] = compound: Cn1cc(CNCC2CCN(c3ncc(C(=O)NO)cn3)CC2)c2ccccc21 [quisinostat]
Outline: as §1

[7] = compound: Cn1cncc1[C@@](N)(c1ccc(Cl)cc1)c1ccc2c(c1)c(-c1cccc(Cl)c1)cc(=O)n2C [tipifarnib]
Outline: as §1

[8] = compound: NC(=O)Nc1cc(-c2cccc(F)c2)sc1C(=O)N[C@H]1CCCNC1
Outline: as §1

[9] = compound: NC(=O)c1cnc(N[C@@H]2CCCC[C@@H]2N)nc1Nc1cccc(-n2nccn2)c1
Outline: as §1

[10] = compound: NC1(c2ccc(-c3nc4ccn5c(=O)[nH]nc5c4cc3-c3ccccc3)cc2)CCC1
Outline: as §1

[11] = compound: NCC(=O)Nc1ccc(-n2nc(C(F)(F)F)cc2-c2ccc3c(ccc4ccccc43)c2)cc1
Outline: as §1

[12] = compound: O=C(CCCCCCC(=O)Nc1ccccc1)NO [vorinostat]
Outline: as §1

[13] = compound: O=C(O)c1ccc2c(c1)nc(Nc1cccc(Cl)c1)c1ccncc12 [silmitasertib]
Outline: as §1

[14] = compound: O=C1NC(=O)C(c2cnc3ccccn23)=C1c1cn2c3c(cc(F)cc13)CN(C(=O)N1CCCCC1)CC2
Outline: as §1

[15] = compound: c1cn2cc(-c3ccc4cn[nH]c4c3)nc(Nc3ccc(N4CCOCC4)cc3)c2n1 [entospletinib]
Outline: as §1

Target	log2 fold change [1]	log2 fold change [2]	log2 fold change [3]	log2 fold change [4]	log2 fold change [5]	log2 fold change [6]	log2 fold change [7]	log2 fold change [8]	log2 fold change [9]	log2 fold change [10]	log2 fold change [11]	log2 fold change [12]	log2 fold change [13]	log2 fold change [14]	log2 fold change [15]
NCAPG (UniProt Q9BPX3)	inactive: 0.01	inactive: 0.002	inactive: -0.062	inactive: 0	inactive: 0.007	inactive: -0.08	inactive: 0	inactive: 0.012	inactive: -0.004	inactive: -0.019	inactive: -0.001	active: -0.283	inactive: 0.029	inactive: -0.003	inactive: -0.002
NAB1 (UniProt Q13506)	inactive: 0.021	inactive: 0.06	inactive: 0.081	inactive: -0.007	inactive: 0.06	inactive: -0.069	inactive: -0.002	inactive: 0.199	–	inactive: 0.243	–	inactive: -0.311	inactive: 0.02	inactive: 0.039	–
NATD1 (UniProt Q8N6N6)	inactive: -0.051	inactive: 0.013	inactive: -0.01	inactive: -0.042	inactive: -0.124	inactive: -0.101	inactive: 0.15	inactive: 0.025	–	inactive: 0.032	inactive: 0.031	inactive: -0.196	inactive: -0.051	inactive: -0.011	inactive: 0.06
NAT10 (UniProt Q9H0A0)	inactive: -0.026	inactive: 0.014	inactive: -0.005	inactive: 0	inactive: 0.036	inactive: -0.105	inactive: 0.018	inactive: 0.03	inactive: 0	inactive: -0.038	inactive: 0.027	inactive: -0.011	inactive: 0.029	inactive: -0.012	inactive: -0.007
NCDN isoform 3 (UniProt Q9UBB6)	inactive: -0.018	inactive: 0.024	inactive: 0.009	inactive: -0.004	inactive: 0.042	inactive: -0.011	inactive: -0.037	inactive: 0.021	inactive: 0.002	inactive: -0.002	inactive: 0.02	inactive: -0.161	inactive: 0.039	inactive: -0.004	inactive: 0.026
NAGLU (UniProt P54802)	inactive: -0.022	inactive: -0.006	inactive: 0.046	inactive: 0.046	inactive: -0.079	inactive: 0.028	inactive: 0.075	inactive: 0.014	inactive: 0.022	inactive: -0.103	inactive: 0.003	inactive: 0.138	inactive: -0.044	inactive: 0.059	inactive: -0.051
NAB2 (UniProt Q15742)	inactive: 0.009	inactive: 0.034	inactive: -0.214	inactive: -0.032	inactive: 0.264	inactive: 0.006	inactive: -0.022	inactive: 0.028	–	inactive: 0.062	inactive: -0.005	inactive: -0.163	inactive: 0.045	inactive: -0.063	inactive: 0.017
N4BP1 (UniProt O75113)	inactive: -0.019	inactive: 0	inactive: -0.047	inactive: 0.002	inactive: -0.004	inactive: -0.048	inactive: -0.015	inactive: 0.044	inactive: 0.042	inactive: 0.019	inactive: 0.003	inactive: -0.107	inactive: -0.015	inactive: 0.049	inactive: 0
N4BP2 (UniProt Q86UW6)	inactive: 0.026	inactive: 0.036	inactive: -0.024	inactive: -0.043	inactive: 0.061	inactive: -0.001	inactive: -0.061	inactive: 0.037	inactive: -0.018	inactive: -0.048	inactive: -0.075	active: -0.369	inactive: -0.004	inactive: -0.001	inactive: -0.029
NAA20 (UniProt P61599)	inactive: 0.028	inactive: -0.01	inactive: -0.007	inactive: 0.02	inactive: -0.024	inactive: -0.049	inactive: 0.005	inactive: 0.012	inactive: 0.023	inactive: 0.026	inactive: -0.093	inactive: 0.029	inactive: 0.022	inactive: 0	inactive: -0.025
MZT2A (UniProt Q6P582)	inactive: 0.016	inactive: 0.035	inactive: 0.008	inactive: -0.074	inactive: 0.021	inactive: 0.087	inactive: -0.035	inactive: -0.066	inactive: 0.001	inactive: 0.098	inactive: 0.12	inactive: 0.007	inactive: 0.017	inactive: -0.09	inactive: -0.015
MYT1L (UniProt Q9UL68)	–	–	–	–	–	–	–	–	inactive: 0.035	–	–	–	–	–	–
MYH6 (UniProt P13533)	–	–	–	–	–	inactive: -0.007	–	inactive: 0.082	inactive: 0.092	inactive: -0.114	–	inactive: 0.209	inactive: -0.053	inactive: 0.188	inactive: 0.102
NAP1L4 (UniProt C9J6D1)	–	–	–	–	–	–	–	–	inactive: 0.236	–	–	–	–	–	–
NARS1 (UniProt K7ENF0)	–	–	–	–	–	inactive: 0.074	–	inactive: 0.016	–	–	–	–	–	inactive: 0.066	–
NCOA1 isoform 2 (UniProt Q15788)	–	–	inactive: -0.18	–	inactive: 0.179	–	–	–	inactive: 0.335	inactive: 0.27	inactive: -0.08	inactive: -0.304	inactive: 0.075	–	–
MYL12A (UniProt P19105)	–	–	–	–	–	–	–	–	–	inactive: -0.055	–	inactive: 0.171	inactive: 0.035	–	–
NCF4 (UniProt Q15080)	–	–	–	–	–	inactive: 0.103	–	inactive: 0	–	–	–	–	–	inactive: -0.075	inactive: 0.036
NCL (UniProt H7BY16)	inactive: 0.07	inactive: 0.024	–	inactive: 0.036	–	–	inactive: 0.211	–	–	–	–	–	–	–	–
NCCRP1 (UniProt Q6ZVX7)	–	–	inactive: 0.221	–	inactive: -0.152	inactive: 0.161	–	inactive: -0.25	inactive: 0.032	–	–	–	–	inactive: 0.376	–
NCOA7 isoform 2 (UniProt Q8NI08)	–	–	inactive: -0.122	–	inactive: 0.012	–	–	–	inactive: -0.053	–	–	–	–	–	–
NAT14 (UniProt Q8WUY8)	–	–	inactive: 0.028	–	inactive: 0.082	inactive: -0.085	–	inactive: 0.022	–	inactive: -0.009	inactive: -0.026	inactive: 0.004	inactive: 0.106	inactive: 0.047	inactive: -0.024

Target	log2 fold change [1]	log2 fold change [2]	log2 fold change [3]	log2 fold change [4]	log2 fold change [5]	log2 fold change [6]	log2 fold change [7]	log2 fold change [8]	log2 fold change [9]	log2 fold change [10]	log2 fold change [11]	log2 fold change [12]	log2 fold change [13]	log2 fold change [14]	log2 fold change [15]
NBR1 (UniProt Q14596)	–	–	inactive: -0.03	–	inactive: 0.137	inactive: -0.061	–	inactive: 0.039	inactive: -0.029	inactive: 0.155	inactive: 0.031	inactive: -0.073	inactive: -0.038	inactive: 0.019	inactive: -0.226
NAP1L1 (UniProt H0YHC3)	–	–	–	–	–	–	–	–	inactive: -0.071	–	–	–	–	–	–
NACA (UniProt F8VNW4)	–	–	–	–	–	–	–	–	inactive: -0.063	–	–	–	–	–	–
NABP1 (UniProt Q96AH0)	inactive: -0.16	inactive: 0.003	–	inactive: -0.049	–	–	inactive: -0.027	–	–	–	inactive: -0.312	–	–	–	inactive: -0.064
MYBL2 (UniProt P10244)	–	–	inactive: -0.055	–	inactive: -0.012	inactive: -0.071	–	inactive: -0.021	–	inactive: -0.015	inactive: -0.03	active: -0.333	inactive: 0.003	inactive: 0.008	inactive: 0.025
MYOF (UniProt Q9NZM1)	–	–	inactive: 0.231	–	inactive: -0.129	–	–	–	–	–	–	–	–	–	–
NAA80 isoform 2 (UniProt Q93015)	inactive: -0.075	inactive: 0.026	–	inactive: 0.011	–	–	inactive: -0.036	–	–	inactive: 0.104	–	inactive: -0.419	inactive: -0.106	–	–
MYO18B isoform 3 (UniProt Q8IUG5)	–	–	inactive: -0.095	–	inactive: 0	inactive: -0.062	–	inactive: 0.054	inactive: 0.026	inactive: -0.018	inactive: -0.011	inactive: -0.454	inactive: 0.112	inactive: 0.064	inactive: -0.033
NCLN isoform 2 (UniProt Q969V3)	–	–	–	–	–	inactive: 0.003	–	inactive: 0.154	–	–	inactive: 0.067	–	–	inactive: 0.067	inactive: -0.012
MYH2 (UniProt Q9UKX2)	–	–	inactive: -0.337	–	inactive: 0.73	–	–	–	–	–	–	–	–	–	–
N4BP2L1 (UniProt Q5TBK1)	inactive: -0.186	inactive: 0.041	–	inactive: 0.026	–	–	inactive: -0.022	–	inactive: 0.044	–	inactive: -0.063	–	–	–	inactive: -0.022
NASP isoform 2 (UniProt P49321)	–	–	–	–	–	–	–	–	inactive: 0.111	–	–	–	–	–	–
MYC isoform 2 (UniProt P01106)	inactive: -0.12	inactive: -0.086	–	inactive: 0.016	–	–	inactive: -0.129	–	–	–	–	–	–	–	–
NAV2 (UniProt Q8IVL1)	inactive: 0.084	inactive: 0.117	–	inactive: -0.361	–	–	inactive: -0.168	–	inactive: -0.286	–	–	–	–	–	inactive: -0.007
NAMPT (UniProt C9JF35)	–	–	–	–	–	–	–	–	inactive: 0.214	inactive: 0.057	–	inactive: -0.03	inactive: 0.146	–	–
NAA15, A0A0B4J1W3	–	–	inactive: -0.025	–	inactive: 0.01	inactive: 0.01	–	inactive: -0.009	inactive: 0.016	inactive: 0.054	inactive: -0.038	inactive: -0.339	inactive: -0.1	inactive: -0.071	inactive: 0.011
NACA2 (UniProt Q9H009)	–	–	inactive: 0.064	–	inactive: 0.032	–	–	–	–	–	–	–	–	–	–
NAP1L4 (UniProt C9JZI7)	–	–	inactive: -0.256	–	inactive: 0.05	–	–	–	inactive: 0.08	inactive: 0.216	–	inactive: -0.071	inactive: 0.051	–	–
MYH3 (UniProt P11055)	–	–	inactive: -0.014	–	inactive: 0.053	–	–	–	–	inactive: -0.072	inactive: -0.064	inactive: 0.141	inactive: -0.052	–	–
MYO10 (UniProt Q9HD67)	inactive: -0.019	inactive: -0.021	–	inactive: 0.126	–	inactive: 0.074	inactive: -0.063	inactive: -0.051	–	inactive: -0.161	inactive: 0.401	inactive: -0.038	inactive: 0	inactive: 0.159	–
MYNN (UniProt Q9NPC7)	–	–	inactive: 0.02	–	inactive: -0.031	–	–	–	–	inactive: 0.149	inactive: -0.023	inactive: 0.175	inactive: -0.221	–	–
N4BP3 (UniProt O15049)	inactive: -0.183	inactive: 0.15	–	inactive: 0.121	–	–	inactive: 0.078	–	inactive: -0.004	inactive: 0.146	–	inactive: -0.666	inactive: 0.129	–	–

Single entries from the entries so far.
NBR1 (UniProt Q14596) – log2 fold change [10]: inactive: 0.155
MYBL2 (UniProt P10244) – log2 fold change [10]: inactive: -0.015
